In PMC2939883:
Results are given in words; binding and its absence hold for the method and conditions named. A result given as binding can be weak or reduced; the word gives no strength.

Protein sequences, listed by entry. Tags and fused reporters are not part of them. Lines headed by an entry give the natural chain unless they say otherwise; changes in a name come on top.
UniProt F4I456: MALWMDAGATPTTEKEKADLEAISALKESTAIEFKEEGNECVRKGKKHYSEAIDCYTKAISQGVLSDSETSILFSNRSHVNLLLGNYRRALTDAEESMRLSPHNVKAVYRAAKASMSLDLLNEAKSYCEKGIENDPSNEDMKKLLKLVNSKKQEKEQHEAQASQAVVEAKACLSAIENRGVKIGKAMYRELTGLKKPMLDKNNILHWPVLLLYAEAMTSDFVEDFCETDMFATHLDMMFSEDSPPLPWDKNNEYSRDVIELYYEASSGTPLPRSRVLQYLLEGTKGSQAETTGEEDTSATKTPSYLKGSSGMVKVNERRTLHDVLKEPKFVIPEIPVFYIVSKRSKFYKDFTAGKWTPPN

Molecular target: TPR2-GST (Arabidopsis thaliana) (UniProt F4I456)
Test: pull-down; TPR1-CBD on chitin beads or TPR2-GST on Glutathione-Sepharose 4B beads (50 µl) incubated 60 min on ice with 1 µg purified Hsp90 or Hsp90ΔMEEVD in 20 mM HEPES pH 7.5, 20 mM KCl, 1 mM MgCl2, 0.01% NP-40, with no nucleotide, 5 mM ADP or 5 mM ATP; retained Hsp90 detected by immunoblot with R2 anti-Hsp90 antibody; both purified

Substance	binding
Hsp90ΔMEEVD (GST tag cleaved) (from UniProt P55737 1-694) (domain or fragment)	no binding (tested: 1 µg Hsp90ΔMEEVD with 50 µl of beads)
purified recombinant AtHsp90-2 (GST tag cleaved) (from UniProt P55737 1-699)	binds
